One assay deals with T1, OGT-FLAG (UniProt O15294).
T1 sequence: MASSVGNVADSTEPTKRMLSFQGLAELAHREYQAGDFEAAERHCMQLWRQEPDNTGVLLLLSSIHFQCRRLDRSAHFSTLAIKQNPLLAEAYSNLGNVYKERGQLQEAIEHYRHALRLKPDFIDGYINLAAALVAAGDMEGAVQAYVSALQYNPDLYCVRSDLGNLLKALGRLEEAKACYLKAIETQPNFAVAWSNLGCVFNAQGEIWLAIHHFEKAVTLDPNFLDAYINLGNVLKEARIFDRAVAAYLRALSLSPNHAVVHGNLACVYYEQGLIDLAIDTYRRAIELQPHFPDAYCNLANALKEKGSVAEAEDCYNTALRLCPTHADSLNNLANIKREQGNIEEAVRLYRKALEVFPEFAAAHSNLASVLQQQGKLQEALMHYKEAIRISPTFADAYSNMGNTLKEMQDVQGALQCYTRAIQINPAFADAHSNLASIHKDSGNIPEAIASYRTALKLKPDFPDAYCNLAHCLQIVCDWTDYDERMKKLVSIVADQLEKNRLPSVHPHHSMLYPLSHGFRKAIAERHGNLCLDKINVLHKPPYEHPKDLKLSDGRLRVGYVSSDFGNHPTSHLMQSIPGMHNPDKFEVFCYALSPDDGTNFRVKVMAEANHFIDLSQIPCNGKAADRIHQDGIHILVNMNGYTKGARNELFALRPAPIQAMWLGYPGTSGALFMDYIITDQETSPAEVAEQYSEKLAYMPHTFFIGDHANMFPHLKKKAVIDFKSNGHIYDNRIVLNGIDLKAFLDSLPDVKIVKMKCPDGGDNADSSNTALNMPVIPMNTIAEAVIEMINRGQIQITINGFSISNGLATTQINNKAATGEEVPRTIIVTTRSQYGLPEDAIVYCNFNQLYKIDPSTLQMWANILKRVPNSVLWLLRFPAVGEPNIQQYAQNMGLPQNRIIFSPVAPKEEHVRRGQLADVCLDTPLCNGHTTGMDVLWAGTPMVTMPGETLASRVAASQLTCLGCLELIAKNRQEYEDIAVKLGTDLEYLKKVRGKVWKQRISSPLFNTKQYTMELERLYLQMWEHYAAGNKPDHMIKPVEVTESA
As to the kind of experiment: co-IP; HEK293T cells transfected with OGT-FLAG and/or PINK1-MYC for 48 h, lysed with IP lysis buffer; MYC IP or FLAG IP on myc/flag magnetic beads for 4 h; western blotting. (A western blot detects proteins with antibodies after separation by electrophoresis.)

Sequences of proteins named here, by UniProt entry; tags and fusion partners are left off. Residues count along the entry.
UniProt Q9BXM7, residues 78-581: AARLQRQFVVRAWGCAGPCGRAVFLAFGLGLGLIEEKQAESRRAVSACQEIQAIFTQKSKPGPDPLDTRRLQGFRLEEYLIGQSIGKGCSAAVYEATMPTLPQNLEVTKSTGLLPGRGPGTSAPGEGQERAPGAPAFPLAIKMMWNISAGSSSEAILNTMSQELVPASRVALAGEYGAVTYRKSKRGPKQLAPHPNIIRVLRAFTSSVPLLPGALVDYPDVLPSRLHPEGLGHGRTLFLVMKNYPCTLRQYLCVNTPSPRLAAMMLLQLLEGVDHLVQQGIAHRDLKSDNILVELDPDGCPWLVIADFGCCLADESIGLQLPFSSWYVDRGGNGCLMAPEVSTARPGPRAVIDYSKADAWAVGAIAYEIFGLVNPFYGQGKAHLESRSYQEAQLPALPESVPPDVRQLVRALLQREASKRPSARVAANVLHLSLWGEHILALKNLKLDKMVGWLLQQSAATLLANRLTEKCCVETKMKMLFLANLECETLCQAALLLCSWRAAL

Assay [1] has as its target T2, O-GlcNAc transferase (OGT), endogenous (human (endogenous in HeLa)) (UniProt O15294).
T2 sequence: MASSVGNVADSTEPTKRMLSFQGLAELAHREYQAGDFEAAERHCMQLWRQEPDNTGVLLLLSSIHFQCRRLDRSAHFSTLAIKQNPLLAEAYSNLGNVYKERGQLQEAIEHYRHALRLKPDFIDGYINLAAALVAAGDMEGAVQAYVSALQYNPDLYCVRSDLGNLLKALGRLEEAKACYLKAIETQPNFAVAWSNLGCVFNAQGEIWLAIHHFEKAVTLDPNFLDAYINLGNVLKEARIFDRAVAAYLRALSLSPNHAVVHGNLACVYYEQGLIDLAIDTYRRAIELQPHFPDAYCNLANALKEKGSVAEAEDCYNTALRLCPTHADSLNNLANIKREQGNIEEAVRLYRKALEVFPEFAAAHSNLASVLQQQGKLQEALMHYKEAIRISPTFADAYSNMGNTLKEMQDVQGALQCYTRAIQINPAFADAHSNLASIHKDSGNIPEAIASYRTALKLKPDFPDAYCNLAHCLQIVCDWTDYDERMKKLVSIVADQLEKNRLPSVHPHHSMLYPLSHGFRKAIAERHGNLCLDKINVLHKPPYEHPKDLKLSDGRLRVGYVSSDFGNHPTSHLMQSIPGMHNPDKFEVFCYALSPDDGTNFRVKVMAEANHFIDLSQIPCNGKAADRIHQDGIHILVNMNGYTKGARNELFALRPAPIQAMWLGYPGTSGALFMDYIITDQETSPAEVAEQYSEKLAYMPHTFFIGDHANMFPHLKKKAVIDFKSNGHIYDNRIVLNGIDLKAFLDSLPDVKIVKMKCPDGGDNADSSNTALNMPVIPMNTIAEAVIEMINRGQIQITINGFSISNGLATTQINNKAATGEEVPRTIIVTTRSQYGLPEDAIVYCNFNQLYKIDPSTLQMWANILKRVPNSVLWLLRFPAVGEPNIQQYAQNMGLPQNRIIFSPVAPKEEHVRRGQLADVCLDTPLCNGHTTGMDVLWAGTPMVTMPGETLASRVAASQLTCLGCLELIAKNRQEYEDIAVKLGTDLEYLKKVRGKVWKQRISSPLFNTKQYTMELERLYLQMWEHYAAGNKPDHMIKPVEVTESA
As to the kind of experiment: co-IP; endogenous IP with anti-PINK1 or anti-OGT antibody on protein A/G magnetic beads; YFP-Parkin expressing HeLa cells treated with or without 1 μM O/A for 1 and 2 h; IP lysis buffer; western blotting.

Assay [2] deals with PTEN-induced kinase 1 (PINK1), endogenous (human (endogenous in HeLa)) (UniProt Q9BXM7). The assay is described as above.
Another assay concerns the target PINK1-MYC (UniProt Q9BXM7). As to the kind of experiment: co-IP; HEK293T cells transfected with OGT-FLAG and/or PINK1-MYC for 48 h, lysed with IP lysis buffer; MYC IP or FLAG IP on myc/flag magnetic beads for 4 h; western blotting.

These are yes or no findings as the source states them, for the method shown. In cells and extracts the contact can be indirect. Some entries that bind do so weakly or less than the wild type. For some of these results: Tags and fused reporters may be left off the sequences shown.

In the case of PINK1-MYC (from UniProt Q9BXM7 78-581), the binding result in the assay with OGT-FLAG is on record as “binds”. Turning to “PTEN-induced kinase 1 (PINK1), endogenous (from UniProt Q9BXM7 78-581)”, the binding result in assay [1] is “binds”.

B1: O-GlcNAc transferase (OGT), endogenous (enzyme, UniProt O15294 1-1046)
chain: MASSVGNVADSTEPTKRMLSFQGLAELAHREYQAGDFEAAERHCMQLWRQEPDNTGVLLLLSSIHFQCRRLDRSAHFSTLAIKQNPLLAEAYSNLGNVYKERGQLQEAIEHYRHALRLKPDFIDGYINLAAALVAAGDMEGAVQAYVSALQYNPDLYCVRSDLGNLLKALGRLEEAKACYLKAIETQPNFAVAWSNLGCVFNAQGEIWLAIHHFEKAVTLDPNFLDAYINLGNVLKEARIFDRAVAAYLRALSLSPNHAVVHGNLACVYYEQGLIDLAIDTYRRAIELQPHFPDAYCNLANALKEKGSVAEAEDCYNTALRLCPTHADSLNNLANIKREQGNIEEAVRLYRKALEVFPEFAAAHSNLASVLQQQGKLQEALMHYKEAIRISPTFADAYSNMGNTLKEMQDVQGALQCYTRAIQINPAFADAHSNLASIHKDSGNIPEAIASYRTALKLKPDFPDAYCNLAHCLQIVCDWTDYDERMKKLVSIVADQLEKNRLPSVHPHHSMLYPLSHGFRKAIAERHGNLCLDKINVLHKPPYEHPKDLKLSDGRLRVGYVSSDFGNHPTSHLMQSIPGMHNPDKFEVFCYALSPDDGTNFRVKVMAEANHFIDLSQIPCNGKAADRIHQDGIHILVNMNGYTKGARNELFALRPAPIQAMWLGYPGTSGALFMDYIITDQETSPAEVAEQYSEKLAYMPHTFFIGDHANMFPHLKKKAVIDFKSNGHIYDNRIVLNGIDLKAFLDSLPDVKIVKMKCPDGGDNADSSNTALNMPVIPMNTIAEAVIEMINRGQIQITINGFSISNGLATTQINNKAATGEEVPRTIIVTTRSQYGLPEDAIVYCNFNQLYKIDPSTLQMWANILKRVPNSVLWLLRFPAVGEPNIQQYAQNMGLPQNRIIFSPVAPKEEHVRRGQLADVCLDTPLCNGHTTGMDVLWAGTPMVTMPGETLASRVAASQLTCLGCLELIAKNRQEYEDIAVKLGTDLEYLKKVRGKVWKQRISSPLFNTKQYTMELERLYLQMWEHYAAGNKPDHMIKPVEVTESA
In the case of B1, the binding result in assay [2] is reported as “binds”.

B2: OGT-FLAG (enzyme, UniProt O15294 1-1046)
chain: MASSVGNVADSTEPTKRMLSFQGLAELAHREYQAGDFEAAERHCMQLWRQEPDNTGVLLLLSSIHFQCRRLDRSAHFSTLAIKQNPLLAEAYSNLGNVYKERGQLQEAIEHYRHALRLKPDFIDGYINLAAALVAAGDMEGAVQAYVSALQYNPDLYCVRSDLGNLLKALGRLEEAKACYLKAIETQPNFAVAWSNLGCVFNAQGEIWLAIHHFEKAVTLDPNFLDAYINLGNVLKEARIFDRAVAAYLRALSLSPNHAVVHGNLACVYYEQGLIDLAIDTYRRAIELQPHFPDAYCNLANALKEKGSVAEAEDCYNTALRLCPTHADSLNNLANIKREQGNIEEAVRLYRKALEVFPEFAAAHSNLASVLQQQGKLQEALMHYKEAIRISPTFADAYSNMGNTLKEMQDVQGALQCYTRAIQINPAFADAHSNLASIHKDSGNIPEAIASYRTALKLKPDFPDAYCNLAHCLQIVCDWTDYDERMKKLVSIVADQLEKNRLPSVHPHHSMLYPLSHGFRKAIAERHGNLCLDKINVLHKPPYEHPKDLKLSDGRLRVGYVSSDFGNHPTSHLMQSIPGMHNPDKFEVFCYALSPDDGTNFRVKVMAEANHFIDLSQIPCNGKAADRIHQDGIHILVNMNGYTKGARNELFALRPAPIQAMWLGYPGTSGALFMDYIITDQETSPAEVAEQYSEKLAYMPHTFFIGDHANMFPHLKKKAVIDFKSNGHIYDNRIVLNGIDLKAFLDSLPDVKIVKMKCPDGGDNADSSNTALNMPVIPMNTIAEAVIEMINRGQIQITINGFSISNGLATTQINNKAATGEEVPRTIIVTTRSQYGLPEDAIVYCNFNQLYKIDPSTLQMWANILKRVPNSVLWLLRFPAVGEPNIQQYAQNMGLPQNRIIFSPVAPKEEHVRRGQLADVCLDTPLCNGHTTGMDVLWAGTPMVTMPGETLASRVAASQLTCLGCLELIAKNRQEYEDIAVKLGTDLEYLKKVRGKVWKQRISSPLFNTKQYTMELERLYLQMWEHYAAGNKPDHMIKPVEVTESA
Take B2: in the assay with PINK1-MYC, the binding result is recorded as “binds”.

These data come from article PMC12224001.
